From patent US20080300147A1, “Detection and Treatment of Fibrotic Disorders” (priority 2004, published 2008)

Key:
leiomyoma = assay: cDNA microarray gene expression profiling of leiomyoma, GnRHa-treated vs untreated patients; assay type: in vivo, human
[1] = test system: leiomyoma smooth muscle cells (LSMC); assay: cDNA microarray gene expression profiling of LSMC treated with GnRHa, TGF-β1 or TGF-β type II receptor antisense; assay type: cell-based, human; conditions: LSMC and MSMC together
myometrium = assay: cDNA microarray gene expression profiling of myometrium, GnRHa-treated vs untreated patients; assay type: in vivo, human

Row | Compound | genes up (+) in GnRH-treated (leiomyoma) [genes] | transcripts downregulated due to GnRHa therapy (leiomyoma) [transcripts] | genes targeted by GnRHa therapy (leiomyoma; excluding 26 EST, p≦0.02) [genes] | genes differentially expressed and regulated in response to GnRHa ([1]; 0.1 μM, 2, 6 and 12 hours, including 36 EST, p≦0.005) [genes] | genes up (+) in GnRH-treated (myometrium) [genes] | transcripts downregulated due to GnRHa therapy (myometrium) [transcripts] | genes targeted by GnRHa therapy (myometrium; excluding 31 EST, p≦0.02) [genes] | genes differentially expressed and regulated in response to TGF-β ([1]; TGF-β1 2.5 ng/ml, 2, 6 and 12 hours, p≦0.001) [genes]
1 | CCNC(=O)[C@@H]1CCCN1C(=O)[C@H](CCCNC(=N)N)NC(=O)[C@H](CC(C)C)NC(=O)[C@@H](CC(C)C)NC(=O)[C@H](Cc1ccc(O)cc1)NC(=O)[C@H](CO)NC(=O)[C@H](Cc1c[nH]c2ccccc12)NC(=O)[C@H](Cc1c[nH]cn1)NC(=O)[C@@H]1CCC(=O)N1 [GnRHa, leuprolide acetate] | 74 | 96 | 170 | 281 | 47 | 89 | 167 | 
2 | TGF-β1: human recombinant TGF-β1 (R&D System), used at 2.5 ng/ml |  |  |  |  |  |  |  | 310
